Source: patent US5478939A, “(R,R) and (S,S) 2,5-diazabicyclo [2,2,1]heptane derivatives” (priority 1994, dated 1995)
At least one compound was matched to its structure with a doubt left.

Target: muscarinic cholinergic receptor (high affinity agonist conformation)
Assay: [3H]-cis-Methyldioxolane (3H-CD) Binding Assay (High Affinity), cerebral cortex
Settings: 3H-CD 1.0 nM, rat cerebral cortex, 25° C., 120 minutes, pH 7.4; read-out: Ki, ^3 H-CD (ctx)

Compound `COc1nccnc1N1C[C@@H]2C[C@H]1CN2C` [Example 33, (S,S)-2-(3-Methoxypyrazinyl)-5-methyl-2,5-diazabicyclo[2.2.1]heptane] has a Ki of 7.5 µM.
